Out of some 300,000 compounds screened, about 3,700 (1.2%) were called active. The inconclusive results got no clear call from the source; some entries with a clear call stand among them for comparison. Calls follow the shape of the full dose curve; tested in HEK293 cells. Where the call is inconclusive, the potency comes from a doubtful curve fit. Some structures have more than one record in an assay (separate samples or runs), and their calls can disagree.
assay: qHTS for Inhibitors of binding or entry into cells for Lassa Virus; conditions: Lassa virus pseudotype entry inhibition, cell reporter; activity change, negative = inhibition: at 37.9 µM (top of the series) unless noted; also: nearly all actives have a fitted effect of over 50% in size
% is scaled to controls: 0 for no effect and ±100 for the full control effect; potency is read from the fitted curve at half-maximal effect.

SMILES | Potency | activity change, negative = inhibition
Cc1ccc(C(=O)N/C(=C/c2ccc(-c3cccc([N+](=O)[O-])c3)o2)C(=O)NC(C)(C)C)cc1 | inconclusive: 12.6 µM [inhibitor, partial curve, poor fit] | 
CCOc1ccc(S(=O)(=O)N/N=C\c2ccc3c(c2)OCO3)cc1 | inconclusive: 35.5 µM [inhibitor, single point] | 
Cc1ccc(S(=O)(=O)CCc2nc3ccccc3[nH]2)cc1 | inconclusive: 11.2 µM [inhibitor, single point] | 
COc1ccc(C(=O)CC(=O)C(=O)Nc2ccc(C)cc2Cl)cc1 | inconclusive: 6.31 µM [activator, single point] | 
Nc1sccc1C(=O)c1ccc(Cl)cc1 |  | inactive: 12.1%
Cc1ccc(SCC(=O)Nc2ccc(-c3nnc(-c4ccco4)o3)cc2)cc1 | inconclusive: 28.2 µM [inhibitor, single point] | 
O=C(NC(=S)Nc1ccc(F)c(Cl)c1)C1CC1 |  | inconclusive: 37.5% [activator] [at 46.1 µM]
Cc1ccc(S(=O)(=O)Nc2cc(C(F)(F)F)ccc2N2CCOCC2)c(C)c1 | inconclusive: 0.411 µM [inhibitor, partial curve, poor fit] | 
CN(C)S(=O)(=O)c1ccc(Cl)c(NC(=O)CN2CCN(c3ccccn3)CC2)c1 | inconclusive: 0.562 µM [inhibitor, full curve, poor fit] | 
O=C(CSCc1c(Cl)cccc1Cl)Nc1ccccc1-c1ccccc1 | inconclusive: 14.1 µM [inhibitor, partial curve, poor fit] | 
COc1ccccc1NC(=O)c1nc(S(=O)(=O)Cc2ccccc2)ncc1Cl | inconclusive: 10 µM [inhibitor, partial curve, poor fit] | 
O=S(=O)(c1ccc(F)cc1)N1CCN(c2ccccc2)CC1 | inconclusive: 20.6 µM [inhibitor, single point] | 
CCN(CC)S(=O)(=O)c1ccc(NN=C(C#N)C#N)cc1 | inconclusive: 29.1 µM [inhibitor, single point] | 
COc1ccc(OC)c(Cc2cnc3nc(N)nc(N)c3c2C)c1 | active: 0.251 µM | 
CC1CCN(CC(=O)N2CCCc3c2c(=O)oc2ccc(OCc4ccccc4)cc32)CC1 | active: 0.631 µM | 
CNC(=O)c1[nH]nc2c1CCc1cc(OC)ccc1-2 | inconclusive: 22.4 µM [inhibitor, single point] | 
CCCOc1ccc(Br)cc1CSC(=N)N | inconclusive: 8.2 µM [inhibitor, partial curve, poor fit] | 
CCOC(=O)c1cn(Cc2ccc(Cl)cc2Cl)c2cc(C)nn2c1=O | inconclusive: 0.112 µM [inhibitor, full curve, poor fit] | 
COc1ccc(C(C)NC(=O)c2ccccc2Cl)cc1OC (stereo not given) | inconclusive: 29.1 µM [activator, partial curve, poor fit] | 
O=C(O)c1c(NC(=O)N2CCOCC2)sc2c1CCCC2 |  | inactive: 13.1% [at 46.1 µM]
CSc1nc2ccccc2nc1N(C)S(=O)(=O)c1ccc(C)cc1 |  | inactive: -10.8% [at 46.1 µM]
CC(C)CN(C(=O)COC(=O)c1ccc2ccccc2c1)c1c(N)n(Cc2ccccc2)c(=O)[nH]c1=O | inconclusive: 7.08 µM [inhibitor, partial curve, poor fit] | 
CCc1nc2ccccc2nc1N1CCN(S(=O)(=O)c2ccccc2)CC1 | inconclusive: 15.8 µM [inhibitor, single point] | 
CN1CCN(S(=O)(=O)c2ccc(NC(=S)NC(=O)c3ccccc3)cc2)CC1 |  | inactive: 2.65%

Quoted at random: 3 compounds from above
SMILES | Potency | activity change, negative = inhibition
Cc1ccc(C(=O)N/C(=C/c2ccc(-c3cccc([N+](=O)[O-])c3)o2)C(=O)NC(C)(C)C)cc1 | inconclusive: 12.6 µM [inhibitor, partial curve, poor fit] | 
Cc1ccc(S(=O)(=O)Nc2cc(C(F)(F)F)ccc2N2CCOCC2)c(C)c1 | inconclusive: 0.411 µM [inhibitor, partial curve, poor fit] | 
O=C(O)c1c(NC(=O)N2CCOCC2)sc2c1CCCC2 |  | inactive: 13.1% [at 46.1 µM]

Further structures.

SMILES | Potency | activity change, negative = inhibition
CC1=C(C(=O)OCc2ccccc2)C(c2ccc(N(C)C)cc2)NC(=O)N1 (stereo not given) | inconclusive: 29.1 µM [inhibitor, single point] | 
Cc1ccc(N2CC(NC(=O)Cc3cccs3)CC2=O)cc1 (stereo not given) | inconclusive: 12.6 µM [activator, partial curve, poor fit] | 
Cc1oc2c(C)c(O)ccc2c(=O)c1-c1cnn(-c2ccccc2)c1 |  | inactive: 11.1%
CCn1cc([N+](=O)[O-])c(C(=O)Nc2ccc(Cn3nc(C)cc3C)cc2)n1 | inconclusive: 3.66 µM [activator, partial curve, poor fit] | 
O=C(CSc1ncnc2ccccc12)Nc1cc(S(=O)(=O)N2CCCCC2)ccc1Cl | inconclusive: 0.58 µM [inhibitor, full curve, poor fit] | 
C/C(CCc1ccc2c(c1)OCO2)=N\NC(=O)c1ccccc1Br |  | inactive: -3.14% [at 46.1 µM]
C=C(C)CNC(=O)c1ccc2nc(Cc3ccc(OC)cc3)oc2c1 | active: 6.31 µM | 
N#CCC(=O)Nc1ccc(C(=O)Nc2cccc(S(N)(=O)=O)c2)cc1 |  | inactive: 7.42%
NN=C1c2ccccc2-c2ccc(N)cc21 |  | inactive: -9.59%
COc1ccccc1OCC(O)Cn1c(=N)n(Cc2ccccc2)c2ccccc21 (stereo not given) | inconclusive: 29.1 µM [inhibitor, single point] | 
CC(C)Oc1ccc(C2CC(=O)N(c3cccc(/C=C/C(=O)O)c3)C2=O)cc1 (stereo not given) |  | inactive: 5.69% [at 46.1 µM]
CCOC(=O)N1CCN(C(=O)C2CCN(S(=O)(=O)c3ccc(Br)s3)CC2)CC1 | inconclusive: 1.26 µM [activator, single point] | 
CC(=O)C1=C(C)N(Cc2ccccc2)C(=O)NC1c1ccc(Br)cc1 (stereo not given) |  | inactive: 15.6% [at 14.3 µM]
O=C(c1ccc2c(c1)ncn2C1CCCCC1)N1CCC2(CC1)OCCO2 | inconclusive: 1.12 µM [inhibitor, partial curve, poor fit] | 
CCCN(CCC)CCCNC(=O)c1cc2c(-c3ccc(Cl)cc3)nn(C)c2s1 | inconclusive: 35.5 µM [inhibitor, single point] | 
O=C(Nc1ccc2nc(-c3cccnc3)[nH]c2c1)c1ccco1 |  | inactive: -5.48%
COc1ccc(NC(=O)Nc2ccc(Cc3ccncc3)cc2)cc1OC |  | inactive: -6.83%
Cc1ccc2nc(C3CCCN(C(=S)Nc4ccccc4C)C3)[nH]c2c1 (stereo not given) |  | inactive: -25.5%
COc1cc(NC(=O)c2ccccc2F)ccc1NC(=O)c1ccccc1Cl |  | inactive: -9.95% [at 46.1 µM]
COc1ccc(-c2cc(C(=O)N3CC4(C)CC3CC(C)(C)C4)no2)cc1 (stereo not given) | inconclusive: 18.3 µM [inhibitor, single point] | 
CC(C)OC(=O)c1c(-c2ccc(C(C)C)cc2)csc1NC(=O)C1CCCO1 (stereo not given) | active: 5.62 µM | 
O=C(OCC(=O)N1CCc2ccccc21)C1=COCCO1 | inconclusive: 1.64 µM [activator, partial curve, poor fit] | 
CCOC(=O)C1=C(C)NC(C)=C(C(=O)OCC)C1C(=O)OCC(=O)N1CCc2ccccc2C1 | inconclusive: 18.3 µM [inhibitor, single point] | 
O=C(NC1CCCN(Cc2ccccc2F)C1)C1CCC1 (stereo not given) | inconclusive: 0.794 µM [inhibitor, single point] | 

SMILES | Potency | activity change, negative = inhibition
O=C(CSc1nnnn1-c1ccc2c(c1)OCO2)NCc1cccs1 |  | inactive: -18.9%
O=C(CSc1cccc[n+]1[O-])N1CCCCCC1 | inconclusive: 0.794 µM [inhibitor, partial curve, poor fit] | 
O=C(Nc1ccc(Cl)cc1)c1ccc(-c2ccccn2)s1 |  | inactive: 11.5%
CC(=O)Nc1cccc(C(=O)N/N=C/c2ccc(F)cc2)c1 | inconclusive: 0.731 µM [activator, partial curve, poor fit] | 
Cc1ccc(N2C(=O)SC(N(CC(=O)O)c3cccc(C)c3)C2=O)cc1 (stereo not given) |  | inactive: 10.1%
S=C(Nc1ccc(Cl)cc1)NC1CCN(Cc2ccccc2)CC1 | inconclusive: 0.651 µM [inhibitor, partial curve] | 
O=c1cc(O)n(-c2ccc(F)cc2)c(=S)[nH]1 | inconclusive: 11.2 µM [activator, partial curve] | 
O=C(O)c1ccccc1C(=O)c1cccs1 |  | inactive: 12.6%
Cc1cc(F)ccc1NC(=O)CCS(=O)(=O)c1cccc2nsnc12 | inconclusive: 6.31 µM [inhibitor, single point] | 
Cc1ccccc1CN1C(=O)c2ccccc2Sc2ccc(C(=O)N3CCOCC3)cc21 |  | inactive: -14% [at 46.1 µM]
COC(=O)c1ccc(C(=O)OC)c(-n2c(=O)c3ccccc3c3ccccc3c2=O)c1 | inconclusive: 31.6 µM [inhibitor, single point] | 
Cc1cccc2cc(CN(Cc3ccc4c(c3)OCO4)Cc3nnnn3C3CCCC3)c(=O)[nH]c12 | inconclusive: 23.1 µM [inhibitor, single point] | 
CN(C(=O)c1cccc(NC(=O)c2cccs2)c1)c1ccccc1 |  | inactive: 1.6%
CC(C)[Si]1(C(C)C)OCC2OC(n3cnc4c(N)ncnc43)C(N)C2O[Si](C(C)C)(C(C)C)O1 (stereo not given) | inconclusive: 11.2 µM [inhibitor, partial curve, poor fit] | 
COc1ccc(-c2csc(NC(=O)c3cccs3)c2C(=O)O)cc1OC |  | inactive: 8.34%
CC(=O)Oc1ccc2c(=O)c(-c3ccccc3)coc2c1 | inconclusive: 10 µM [inhibitor, partial curve, poor fit] | 
Cc1ccc(C(=O)Nc2ccc(C)c(S(=O)(=O)Nc3ccccc3Cl)c2)s1 | active: 5.17 µM | 
Cc1cc(C)cc(NC(=O)C2CCCC2)c1 | inconclusive: 3.66 µM [activator, partial curve, poor fit] | 
NS(=O)(=O)c1cc(C(=O)N=Nc2c(O)[nH]c3ccccc23)ccc1Cl |  | inactive: -0.409%
Cc1ccccc1NC(=S)NC(=O)Cc1ccc(Cl)cc1 | inconclusive: 22.4 µM [inhibitor, single point] | 
Cc1cc(=O)c(C(=O)c2ccccc2)c(C)o1 | inconclusive: 12.6 µM [activator, partial curve, poor fit] | 
CO[C@H]1O[C@H](CBr)[C@@H](OC(=O)c2ccccc2)[C@H](O)[C@H]1O |  | inconclusive: 12.7% [activator]

Source: PubChem BioAssay AID540256 (National Center for Advancing Translational Sciences (NCATS), 2011)
